The results in this text go back to the supplement of paper PMC10338343.

± gives the standard deviation. The list shows a part of the results. Many entries were measured with a wide error.

One test has as its system EfPiwi piRISC loaded with L1MC piRNA (26 nt). Kind of test: pre-steady-state target cleavage rate (min^-1); guide: L1MC piRNA 5'p-UAACUAAAUACUAUGCAAGCUGUAGG; MIWI and MILI are mouse PIWI proteins and EfPiwi is from a freshwater sponge; tags in brackets are library labels; higher = faster piRNA-guided slicing of the target. Conditions: auxiliary factor: 500 nM Ephydatia muelleri Gtsf1. The protocol: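 Cleave-'n-Seq: a library of target RNAs (target site in constant flanks) at […] was incubated with 1 nM active freshwater sponge Ephydatia fluviatilis Piwi piRISC (synthetic 5'-monophosphorylated piRNA guide) with or without 500 nM EmGtsf1 at 33 °C for 1 min to 16 h. Uncleaved targets were sequenced and the pooled three trials fitted to a burst-and-steady-state model to give the pre-steady-state cleavage rate (min^-1). Sequence is the target site only. Fits with R² ≤ 0 are excluded.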
With UCCUGGAAGAGCUUGCAAAGUAUUUAGUUA, the “pre-steady-state target cleavage rate” value stood at 0.018 ± 0.005.
On the same count and under the same terms, the result for UCCUCCUACAGCUUGCAUAGAUAUUUCAAA reads 0.00158 ± 0.0036.
UCCUGGUACAGCUUGCAAAGUAUAUAGUUA: the “pre-steady-state target cleavage rate” value came out at 0.00285 ± 0.0041.
The same measure, in the same setting: the result for UCCUGGUACAGCUUGCAUUGUAUUAAGUUA reads 0.00275 ± 0.0033; that for UCCUGGAUGUCCUACGAUAGUAUUUAGUUA, 0.000315 ± 0.009.
On the same count and under the same terms, with UCCUGGAUGUCGAACUAUAGUAUUUAGUUA the figure was 0.000345 ± 0.012; with UCCUGGAUGAGGAUGCAUAGUAUUUACAAA, 0.000698 ± 0.0043; with UCCUGGAUGUCGUUGCAUCGUAUUUAGUUA, 0.00198 ± 0.004.
As to UCCUGCUAGCAGCUUGCAUAGUAUUUAGUUA, the “pre-steady-state target cleavage rate” value worked out at 0.0598 ± 0.016.
The same measure, in the same setting: with UCCUGCUUCAGCUUCCAUAGUAUUUAGUUA the figure was 0.00322 ± 0.0013; with UCCUGCUUCAGCUUGCAUAGUAUUUUCAAA, 0.00362 ± 0.0023.
Turning to UCCUGGAUGUCGAAGCAUAGUAUUUAGUAUA, the “pre-steady-state target cleavage rate” value was 0.000151 ± 0.028.
The same measure, in the same setting: the result for UCCUGGAUGUCGAUGCAUACUAUUUAGAUA reads 0.00117 ± 0.006.
Still for that read-out and setting: with UCCUGGAUGAGCUUGCAUACUAUUUAGAUA the figure was 0.00231 ± 0.0021; with UCCUGGAUGUCGUUGCAUAGUAUUUAGUCUA, 0.000281 ± 0.03.
Consider UCCUGGAUGUCGAUGCGUAGUAUUUAGUUA, for which the “pre-steady-state target cleavage rate” value came to 0.000457 ± 0.011.
The same measure, in the same setting: with UCCUGGAACAGCUCUGCAUAGUAUUUAGUUA the figure was 0.0165 ± 0.005; with UCCUGGAUGUCGAUGCAUAGUAUUUAGUGUA, 0.00205 ± 0.0045; with UCCUGGAUGAGCUUGCAUAGUAAAAACAAA, 0.000451 ± 0.0086.
Turning to UCCUGGAUGUGCUAGCAUAGUAUUAAGUUA, the “pre-steady-state target cleavage rate” value turned out to be 0.000944 ± 0.0057.
Still for that read-out and setting: with UCCUGGAUGUCGAUGCAUAGUUUUAAGUUA the figure was 0.000249 ± 0.018; with UCCUGGAUCAGCUUGCUUUGUAUUUAGUUA, 0.00384 ± 0.0042.
On the same count and under the same terms, with UCCUGGUACACCUUCCAUAGUAUUUAGUUA the figure was 0.00121 ± 0.0058; with UCCUGGAUGAGCUUGCAUAGUUAUUAGUUA, 0.0028 ± 0.0038.

Staying with this test, now noted: auxiliary factor: none (no Gtsf1).
As for UCCUGGUACAGCUUGCAAAGUAUAUAGUUA, the “pre-steady-state target cleavage rate” value amounted to 0.000606 ± 0.014.
On the same count and under the same terms, the result for UCCUGGAUGUCCUACGAUAGUAUUUAGUUA reads 0.000318 ± 0.021; that for UCCUGGAUGAGGAUGCAUAGUAUUUACAAA, 0.000295 ± 0.022; that for UCCUGGAUGUCGUUGCAUCGUAUUUAGUUA, 0.000319 ± 0.018.
The same measure, in the same setting: the result for UCCUGCUUCAGCUUCCAUAGUAUUUAGUUA reads 0.000532 ± 0.011; that for UCCUGCUUCAGCUUGCAUAGUAUUUUCAAA, 0.000311 ± 0.015.
With UCCUGGAUGUCGAUGCAUACUAUUUAGAUA, the “pre-steady-state target cleavage rate” value amounted to 0.000286 ± 0.022.
On the same count and under the same terms, with UCCUGGAUGAGCUUGCAUACUAUUUAGAUA the figure was 0.000699 ± 0.01.
Still for that read-out and setting: the result for UCCUGGAUGUCGUUGCAUAGUAUUUAGUCUA reads 0.000355 ± 0.026; that for UCCUGGAUGUCGAUGCGUAGUAUUUAGUUA, 0.00079 ± 0.0084; that for UCCUGGAUGUCGAUGCAUAGUAUUUAGUGUA, 0.000465 ± 0.022.
Same read-out and setting: the result for UCCUGGAUGAGCUUGCAUAGUAAAAACAAA reads 0.000168 ± 0.048; that for UCCUGGAUGUGCUAGCAUAGUAUUAAGUUA, 0.000312 ± 0.03; that for UCCUGGUACACCUUCCAUAGUAUUUAGUUA, 0.000223 ± 0.038.
On to UCCUGGAUGAGCUUGCAUAGUUAUUAGUUA, for which the “pre-steady-state target cleavage rate” value amounted to 0.000448 ± 0.023.
